Experiments:
[1] = Surface Electrical Resistivity (SER) of gelatin-based coatings containing surfactant
[2] = Impact electrostatic charging of gelatin-based coatings against stainless steel; conditions: 50% RH
[3] = 50% RH, absence of CF3SO3Li, surfactant 0.15 wt %
[4] = 50% RH, absence of CF3SO3Li, surfactant 0.3 wt %
[5] = 50% RH, absence of CF3SO3Li, surfactant 0.6 wt %
[6] = 50% RH, presence of CF3SO3Li (½ wt of surfactant), surfactant 0.15 wt %
[7] = 50% RH, presence of CF3SO3Li (½ wt of surfactant), surfactant 0.3 wt %
[8] = 50% RH, presence of CF3SO3Li (½ wt of surfactant), surfactant 0.6 wt %
[9] = against stainless steel, presence of CF3SO3Li (½ wt of surfactant), surfactant 0.15 wt %
[10] = against stainless steel, presence of CF3SO3Li (½ wt of surfactant), surfactant 0.3 wt %
[11] = against stainless steel, presence of CF3SO3Li (½ wt of surfactant), surfactant 0.6 wt %

Substance	Log SER (Ω per Square) [1, 3]	Log SER (Ω per Square) [1, 4]	Log SER (Ω per Square) [1, 5]	Log SER (Ω per Square) [1, 6]	Log SER (Ω per Square) [1, 7]	Log SER (Ω per Square) [1, 8]	Impact Charging [2, 9]	Impact Charging [2, 10]	Impact Charging [2, 11]	Log SER (Ω per Square) ([1]; 20% RH, presence of CF3SO3Li (½ wt of surfactant), surfactant 0.15 wt %)	Log SER (Ω per Square) ([1]; 20% RH, presence of CF3SO3Li (½ wt of surfactant), surfactant 0.3 wt %)	Log SER (Ω per Square) ([1]; 20% RH, presence of CF3SO3Li (½ wt of surfactant), surfactant 0.6 wt %)	Impact Charging ([2]; absence of CF3SO3Li)
Fluoroalkylthiosuccinic acid, Polyethylene glycol diester (II, R=C6F13CH2CH2,p=7)	10.9 Ω per Square	10.8 Ω per Square	10.6 Ω per Square	11.0 Ω per Square	10.2 Ω per Square	9.6 Ω per Square	+2 μCm^−2	0 μCm^−2	−2 μCm^−2				
CxF2x+1(CH2)y—(CH2CH2O) z—OH [Zonyl FSN]	11.5 Ω per Square	11.4 Ω per Square	11.1 Ω per Square	11.1 Ω per Square	10.3 Ω per Square	9.6 Ω per Square	−16 μCm^−2	+2 μCm^−2	+4 μCm^−2	11.9 Ω per Square	10.7 Ω per Square	10.1 Ω per Square	charges strongly negatively
